Values of other authors, collected in paper PMC7796259, “Evaluation of Ionic Liquids and Ionic Liquids Active Pharmaceutical Ingredients Inhibition in Elastase Enzyme Activity” (Molecules, 2021).

Biological target: carboxylesterase
Details: read-out: EC50 for carboxylesterase; compared with elastase values; cited from earlier work

In the case of `CC(C)(C)CC(C)(C)c1ccc(OCCOCC[N+](C)(C)Cc2ccccc2)cc1` [Benzethonium chloride], the EC50 is listed as 123.7 ± 0.009 µM.
